Data: PubChem BioAssay AID1347426 (Functional Genomics Laboratory (NCATS/FGL), 2020)
The campaign covered roughly 31,000 sequences. About 1,400 (4.5%) were called active.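 Rule for the calls: active = median seed-adjusted z-score above 1 or below -1; inactive = the rest.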 Some of the results follow.

assay: Novel Modifiers of Survival Motor Neuron (SMN) Protein: Gene Identification via Genome-wide siRNA Screen; settings: HEK293T SMN2-luciferase reporter, siRNA knockdown, 72 h; actives lie on both sides;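 note: luminescence tracks full-length SMN protein made from the SMN2 reporter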
Procedure, shortened: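 HEK293T cells stably expressing an SMN2 splicing/cDNA-luciferase reporter were reverse-transfected with a druggable-genome siRNA library and read by luminescence at 72 hours; hits defined by MAD score above 1.0 or below -1.0.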

Sequence | median seed-adjusted z-score
GAUUGUCAAUGGGUGUAUUTT against AOF1 | inactive: -0.211
UCACCAUGGUUUACACUGUTT against KCNJ5 | inactive: 0.0644
GCUCGUAACUUCCUCGUUUTT against SMC1A | inactive: -0.362
GUACCUUCCCUGAUCAUCATT against ZNF689 | inactive: 0.448
AGCAUGUUCUUACUGCUCATT against NCR1 | inactive: -0.26
GGUGCAUAGCUAUCCGUAUTT against IARS2 | inactive: -0.404
CAAUGAUCAUGGACCGUUUTT against CPEB3 | inactive: 0.086
GAUGAGACUUUGACUAUAATT against FGD6 | inactive: 0.536
GCUUCGGCUUAUUAACCAATT against MAP2 | inactive: 0.238
CCCUCUACCUCGUCCGAAUTT against SIRPA | inactive: -0.153
CCGUGGACUAUAUCCGAAATT against MITF | inactive: -0.249
CGAGGAGACCUGACAUGUUTT against ABCG4 | inactive: -0.439
CGUCACCUUCCUUAAGAUUTT against ADORA1 | inactive: 0.022
GGUCUUCUGCGAUCAGUUATT against S100A3 | inactive: -0.176
GGAAGUUACUUACCGGGAATT against ATP5F1 | inactive: -0.323
CGGUGCAUUUGUUCAAGGATT against SHOX | inactive: 0.316
UGCUGAUGACAGUCAUUUATT against CYP2S1 | inactive: -0.196
CAACCAACAUUUACAUAUUTT against OPRK1 | active: -1.08
CCGAAUGAAUGGUGAUAAATT against TUSC3 | inactive: 0.138
GAAUGAAGCACGUCAAGAATT against SCO1 | inactive: -0.251
UGCACACCUUGGACCAUGATT against SGCA | inactive: 0.144
CGUGGUCUUUGAGCAGUUUTT against ABP1 | inactive: -0.241
GAACUAACUACAUAUGAAATT against OGFRL1 | inactive: 0.0339
AUAUCCUAAUAGGAAUUAATT against ATP5J2 | inactive: 0.00511
CCAAUGGUCUACUUGGUUATT against OLA1 | inactive: -0.408
CAGCUGGGCUGGACAUAUUTT against CLIC1 | inactive: 0.288
AGCGGGUGGUGAAACUCUATT against PLXNA1 | inactive: 0

Sequence | median seed-adjusted z-score
GGACGGAUCUACAUCAUCATT against TSSK2 | inactive: -0.064
GCACUAAUGUGAUCGUUGATT against MMP8 | inactive: -0.781
GCCUCUAUUUGAUAAGCGATT against NAP1L1 | inactive: 0.263
CAGGAUAUGUACUAAGCAATT against C1GALT1 | inactive: -0.394
ACACUGCCUUGAUAACAUATT against HSPB6 | inactive: 0.394
GGAAGUAUUAGGGUACAAATT against SOS2 | inactive: 0.3
AGCUUGAAAUCUCAUGGAATT against SPINK5L2 | inactive: 0.482
GCCGAGUACUGAACAUUGUTT against P2RY4 | inactive: -0.389
CGCCUAUGUUUGGUGAUUATT against ALG6 | inactive: 0.106
CCCUCAGACUAUGACCUUUTT against BST1 | inactive: -0.28
GCAUCAAGCCGGGUGUGAUTT against PAX2 | inactive: 0.341
GCAUUACUGUAUUAUACCATT against PIGW | inactive: -0.242
CCAGUGCUGCAUUUCAGUUTT against KRTAP5-6 | inactive: 0.185
GCUUACCAAUGAAACUCGATT against USP46 | inactive: -0.964
CGACAACAUAUGUUCCGGATT against TNFRSF11B | inactive: 0.582
GUGUCUACCUGAUCACCAUTT against FPR3 | inactive: -0.605
UGAUUGUUUUCAAUGGGAATT against CANT1 | inactive: 0
GGCAGUACGCGGAGAAGAATT against EEF1D | inactive: 0.421
CUCAUGUGAUUUUACGAUATT against AMFR | inactive: -0.15
GUGCAUGCAGGAGAAGUCATT against GATA2 | inactive: 0.623
CUAUGUCGUUGAAAACCAUTT against KCNE1 | inactive: -0.347
GGAUUUGAUUACUUACUAATT against EEF2K | inactive: 0
GGAUAUGGAACUCACGUUATT against ITLN2 | inactive: 0.00733
GGUGGAGGACCAAACAGAATT against MGAT4B | inactive: 0.0142
CCAGCCUUAUAACAGCUGATT against NR2E3 | inactive: -0.184
AGAUGGAUGUGCCCAGCAATT against PCGF2 | inactive: 0.187
CUCUCAUCGUCAUCCUUGATT against SLC6A17 | inactive: -0.41

Four consecutive records out of the list so far:
Sequence | median seed-adjusted z-score
GCACUAAUGUGAUCGUUGATT against MMP8 | inactive: -0.781
GCCUCUAUUUGAUAAGCGATT against NAP1L1 | inactive: 0.263
CAGGAUAUGUACUAAGCAATT against C1GALT1 | inactive: -0.394
ACACUGCCUUGAUAACAUATT against HSPB6 | inactive: 0.394
